{"source": "the supplement of paper PMC4807443", "note": "Counter-ions that a name gives are not always drawn. The list shows a part of the results. The numbers are fractions of the control, whatever unit the source prints. Most entries show no effect beyond the scatter of the controls.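 A lentiviral reporter stably expressed in MIN6 mouse insulinoma beta cells uses Pdx1 and Ins1 promoters to drive separate nucleus-targeted fluorescent proteins; automated imaging with Hoechst nuclear stain counted cells. Possible hits were drugs shifting Ins1 promoter signal more than two median absolute deviations from DMSO controls, with Pdx1 activity roughly normal.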", "data": [{"system": "MIN6", "test": "% Pdx1+ Ins1+ (double-positive, mature) cells relative to DMSO control (fold of DMSO control); higher = more mature Ins1 promoter-active cells", "conditions": "8.5 µM; 48 h; glucose 5 mM", "values": [{"smiles": "O=C(O)Cc1ccc(-c2ccccc2)cc1", "note": "[Felbinac]", "% Pdx1+ Ins1+": 0.959}, {"smiles": "Clc1ccc(CCC(Cn2ccnc2)Sc2c(Cl)cccc2Cl)cc1", "note": "(centres undefined) [Butoconazole nitrate]", "% Pdx1+ Ins1+": 1.09}, {"smiles": "N#Cc1ccc(C(c2ccc(C#N)cc2)n2cncn2)cc1", "note": "[Letrozole]", "% Pdx1+ Ins1+": 0.934}, {"smiles": "C[N+]1(C)CCC(OC(=O)C(O)(c2ccccc2)C2CCCC2)C1", "note": "(centres undefined) [Glycopyrrolate]", "% Pdx1+ Ins1+": 0.965}, {"smiles": "N=C(NCCCCCCNC(=N)NC(=N)Nc1ccc(Cl)cc1)NC(=N)Nc1ccc(Cl)cc1", "note": "[Chlorhexidine]", "% Pdx1+ Ins1+": 0.437}, {"smiles": "NCc1ccccc1CC(=O)N[C@@H]1C(=O)N2C(C(=O)O)=C(CSc3nnnn3CC(=O)O)CS[C@H]12", "note": "[Ceforanide]", "% Pdx1+ Ins1+": 1.04}, {"smiles": "COc1c2occc2cc2ccc(=O)oc12", "note": "[Methoxy-8-psoralen]", "% Pdx1+ Ins1+": 0.943}, {"smiles": "CN1CCN(C2=Nc3ccccc3Oc3ccc(Cl)cc32)CC1", "note": "[Loxapine succinate]", "% Pdx1+ Ins1+": 1.09}, {"smiles": "CCN(CC)CCOC(=O)C1(C2CCCCC2)CCCCC1", "note": "[Dicyclomine hydrochloride]", "% Pdx1+ Ins1+": 1.08}, {"smiles": "CC(N/C(=N\\C#N)Nc1ccncc1)C(C)(C)C", "note": "(centres undefined) [Pinacidil]", "% Pdx1+ Ins1+": 1.13}, {"smiles": "Cc1[nH]ccc2c1[nH]c1cc(=O)ccc12", "note": "[Harmol hydrochloride monohydrate]", "% Pdx1+ Ins1+": 0.872}, {"smiles": "CN(C)CCCN1c2ccccc2Sc2ccc(C(F)(F)F)cc21", "note": "[Triflupromazine hydrochloride]", "% Pdx1+ Ins1+": 1.08}, {"smiles": "COc1ccc([C@@H]2CC(=O)c3c(O)cc(O)cc3O2)cc1O", "note": "[Hesperetin]", "% Pdx1+ Ins1+": 1.09}, {"smiles": "COc1cc(C(=O)OCCCN2CCCN(CCCOC(=O)c3cc(OC)c(OC)c(OC)c3)CC2)cc(OC)c1OC", "note": "[Dilazep dihydrochloride]", "% Pdx1+ Ins1+": 1.13}, {"smiles": "CC[N+](C)(C)c1cccc(O)c1", "note": "[Edrophonium chloride]", "% Pdx1+ Ins1+": 1.23}, {"smiles": "CCCOc1cc(N)ccc1C(=O)OCCN(CC)CC", "note": "[Propoxycaine hydrochloride]", "% Pdx1+ Ins1+": 0.958}, {"smiles": "OCCN1CCN(CC/C=C2/c3ccccc3Sc3ccc(C(F)(F)F)cc32)CC1", "note": "[Flupentixol dihydrochloride cis-(Z)]", "% Pdx1+ Ins1+": 1.04}, {"smiles": "CC(=O)OCC(=O)[C@@]1(O)CC[C@H]2[C@@H]3CCC4=CC(=O)CC[C@]4(C)[C@@]3(F)[C@@H](O)C[C@@]21C", "note": "[Fludrocortisone acetate]", "% Pdx1+ Ins1+": 0.934}, {"smiles": "COc1ccc2c3c([nH]c2c1)[C@H]1C[C@H]2[C@H](C[C@@H](O)[C@H](OC)[C@H]2C(=O)O)CN1CC3", "note": "[Reserpinic acid hydrochloride]", "% Pdx1+ Ins1+": 0.883}, {"smiles": "CCCCN(CCCC)CCCOC(=O)c1ccc(N)cc1", "note": "[Butacaine]", "% Pdx1+ Ins1+": 1.14}, {"smiles": "Cc1ccc(C(=O)c2ccc(CC(=O)O)n2C)cc1", "note": "[Tolmetin sodium salt dihydrate]", "% Pdx1+ Ins1+": 1.06}, {"smiles": "COC(=O)Nc1nc2cc(C(=O)c3cccs3)ccc2[nH]1", "note": "[Nocodazole]", "% Pdx1+ Ins1+": 0.886}, {"smiles": "CC[N+](C)(CC)CCOC(=O)C1c2ccccc2Oc2ccccc21", "note": "[Methantheline bromide]", "% Pdx1+ Ins1+": 0.781}, {"smiles": "Cc1ncc(C[n+]2csc(CCO)c2C)c(N)n1", "note": "[Thiamine hydrochloride]", "% Pdx1+ Ins1+": 0.948}, {"smiles": "CCN[C@H]1CN(CCCOC)S(=O)(=O)c2sc(S(N)(=O)=O)cc21", "note": "[Brinzolamide]", "% Pdx1+ Ins1+": 1.04}, {"smiles": "NS(=O)(=O)c1cc(C2(O)NC(=O)c3ccccc32)ccc1Cl", "note": "(centres undefined) [Chlorthalidone]", "% Pdx1+ Ins1+": 0.9}, {"smiles": "C=CC(N)CCC(=O)O", "note": "(centres undefined) [Vigabatrin]", "% Pdx1+ Ins1+": 0.887}, {"smiles": "CC(Cc1cccc(C(F)(F)F)c1)NCCOC(=O)c1ccccc1", "note": "(centres undefined) [Benfluorex hydrochloride]", "% Pdx1+ Ins1+": 0.937}, {"smiles": "CC(=O)S[C@@H]1CC2=CC(=O)CC[C@]2(C)[C@H]2CC[C@@]3(C)[C@@H](CC[C@@]34CCC(=O)O4)[C@H]12", "note": "[Spironolactone]", "% Pdx1+ Ins1+": 1.18}, {"smiles": "NNCCc1ccccc1", "note": "[Phenelzine sulfate]", "% Pdx1+ Ins1+": 1.06}, {"smiles": "C=C1CC[C@H](O)C/C1=C/C=C1\\CCC[C@]2(C)[C@@H]([C@H](C)CCCC(C)C)CC[C@@H]12", "note": "[Cholecalciferol]", "% Pdx1+ Ins1+": 0.848}, {"smiles": "CC(C)(C)NC[C@@H](O)COc1cccc2c1CCCC2=O", "note": "[(+) -Levobunolol hydrochloride]", "% Pdx1+ Ins1+": 0.889}, {"smiles": "N=C(N)NC(=N)NCCc1ccccc1", "note": "[Phenformin hydrochloride]", "% Pdx1+ Ins1+": 1.14}, {"smiles": "CN1CCC(=C2c3ccccc3C=Cc3ccccc32)CC1", "note": "[Cyproheptadine hydrochloride]", "% Pdx1+ Ins1+": 0.732}, {"smiles": "CS(=O)(=O)c1ccc([C@@H](O)[C@@H](CF)NC(=O)C(Cl)Cl)cc1", "note": "[Florfenicol]", "% Pdx1+ Ins1+": 1.07}, {"smiles": "CCN(CC)CCCC(C)Nc1ccnc2cc(Cl)ccc12", "note": "(centres undefined) [Chloroquine diphosphate]", "% Pdx1+ Ins1+": 0.867}, {"smiles": "Nc1ccc(S(=O)(=O)NC(=O)c2ccccc2)cc1", "note": "[Sulfabenzamide]", "% Pdx1+ Ins1+": 0.812}, {"smiles": "C=C(CC)C(=O)c1ccc(OCC(=O)O)c(Cl)c1Cl", "note": "[Ethacrynic acid]", "% Pdx1+ Ins1+": 0.942}, {"smiles": "O=C1NCCN1c1ncc([N+](=O)[O-])s1", "note": "[Niridazole]", "% Pdx1+ Ins1+": 0.808}, {"smiles": "C=C(C)[C@@H]1CC[C@]2(C(=O)O)CC[C@]3(C)[C@H](CC[C@@H]4[C@@]5(C)CC[C@H](O)C(C)(C)[C@@H]5CC[C@]43C)[C@@H]12", "note": "[Betulinic acid]", "% Pdx1+ Ins1+": 0.921}, {"smiles": "C[C@@H](O)[C@H]1C(=O)N2C(C(=O)O)=C(SCCNC=N)C[C@H]12", "note": "[Imipenem]", "% Pdx1+ Ins1+": 0.945}, {"smiles": "c1ccc2c(c1)CCCC2C1=NCCN1", "note": "(centres undefined) [Tetrahydrozoline hydrochloride]", "% Pdx1+ Ins1+": 0.642}, {"smiles": "CC(C)(C)C(=O)OCOC(=O)[C@@H]1N2C(=O)[C@@H](/N=C/N3CCCCCC3)[C@H]2SC1(C)C", "note": "[Pivmecillinam hydrochloride]", "% Pdx1+ Ins1+": 0.934}, {"smiles": "CNc1ncnc2c1ncn2[C@@H]1O[C@H](CO)[C@@H](O)[C@H]1O", "note": "[N6-methyladenosine]", "% Pdx1+ Ins1+": 0.833}, {"smiles": "OCC(O)CN1CCN(c2ccccc2)CC1", "note": "(racemic) [Dropropizine (R,S)]", "% Pdx1+ Ins1+": 1.09}, {"smiles": "CCn1cc(C(=O)O)c(=O)c2cc(F)c(N3CCNCC3)nc21", "note": "[Enoxacin]", "% Pdx1+ Ins1+": 0.912}, {"smiles": "CCCc1ncc(C[n+]2ccccc2C)c(N)n1", "note": "[Amprolium hydrochloride]", "% Pdx1+ Ins1+": 1.18}, {"smiles": "CC(C(=O)O)c1cccc(Oc2ccccc2)c1", "note": "(centres undefined) [Fenoprofen calcium salt dihydrate]", "% Pdx1+ Ins1+": 0.839}, {"smiles": "Cc1ccc(N(CC2=NCCN2)c2cccc(O)c2)cc1", "note": "[Phentolamine hydrochloride]", "% Pdx1+ Ins1+": 0.958}]}]}
